# According to patent publication EP4847509A1, “GLP-1 RECEPTOR AGONIST, AND PREPARATION METHOD THEREFOR AND USE THEREOF” (dated 2026):
# Sequences of proteins named here, by UniProt entry; tags and fusion partners are left off. Residues count along the entry.
# UniProt P43220, 24-463 limits assumed: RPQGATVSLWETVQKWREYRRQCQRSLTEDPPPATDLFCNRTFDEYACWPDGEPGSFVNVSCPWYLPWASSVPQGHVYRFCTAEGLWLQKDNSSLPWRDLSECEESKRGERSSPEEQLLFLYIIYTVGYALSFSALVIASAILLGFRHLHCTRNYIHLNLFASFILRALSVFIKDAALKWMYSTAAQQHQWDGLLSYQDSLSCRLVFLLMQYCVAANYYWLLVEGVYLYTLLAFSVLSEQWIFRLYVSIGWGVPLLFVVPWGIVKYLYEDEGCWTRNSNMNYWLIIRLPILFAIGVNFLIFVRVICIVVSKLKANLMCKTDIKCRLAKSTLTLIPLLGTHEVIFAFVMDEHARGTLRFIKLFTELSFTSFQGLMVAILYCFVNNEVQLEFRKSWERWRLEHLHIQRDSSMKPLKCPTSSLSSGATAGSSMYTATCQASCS
# The match of structure and compound is tentative.
# Columns and labels:
# [1] = biological target: GLP-1 receptors (Homo sapiens, UniProt P43220); experiment: cAMP agonism test in HEK293 cells with high expression of hGLP-1R (titled in vitro cell viability test); details: cAMP detection
# [2] = Stability in liver microsome; details: human liver microsome 0.5 mg/mL, 1 µM test substance, NADPH, 37°C
# [3] = Kinetic solubility in FaSSIF; details: FaSSIF pH 6.5, 25°C, 2 h, 100 µM final concentration, 0.5% DMSO
# [4] = Pharmacokinetic study in mice; details: C57BL/6 mice, po, 10 mg/kg
Human T1/2 [2] [h],FaSSIF pH 6.5 [3] [µM],AUC0-24 h [4] [ng·h/mL],Cmax [4] [ng/mL],T1/2 [4] [h],SMILES,EC50 [1] [nM]
–,–,–,–,–,Cc1cc(-n2nc3c(c2-n2ccn(-c4ccc5c(cnn5C)c4F)c2=O)[C@H](C)N(C(=O)c2cc4cc(C5CCOCC5)ccc4n2C2(c4noc(=O)[nH]4)CC2)CC32CC2)cc(C)c1F,0.74
–,–,–,–,–,Cc1cc(-n2nc3c(c2-n2ccn(-c4ccc5c(cnn5C5CC5)c4F)c2=O)[C@H](C)N(C(=O)c2cc4cc(C5CCOCC5)ccc4n2[C@@]2(c4noc(=O)[nH]4)C[C@@H]2C)CC32CC2)cc(C)c1F,1.25
>3.07,37.85,87035,6937,24.3,Cc1cc(-n2nc3c(c2-n2ccn(-c4ccc5c(cnn5C5CC5)c4F)c2=O)[C@H](C)N(C(=O)c2cc4cc([C@H]5CCOC(C)(C)C5)ccc4n2[C@@]2(c4noc(=O)[nH]4)C[C@@H]2C)CC32CC2)cc(C)c1F,1.12
